Reference: publication doi:10.1101/212233 (bioRxiv, 2017)
No constants are given. Whether binding was seen depends on the method and setting. Some entries that bind do so weakly or less than the wild type. Tags and fused reporters may be left off the sequences shown.

T1: DARP14 subunit B (unfused cage subunit B)
T1 sequence: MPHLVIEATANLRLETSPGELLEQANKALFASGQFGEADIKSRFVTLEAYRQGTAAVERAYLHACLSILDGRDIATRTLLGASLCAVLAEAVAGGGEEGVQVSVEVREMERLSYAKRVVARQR

T2: DARP10 subunit B (unfused cage subunit)
T2 sequence: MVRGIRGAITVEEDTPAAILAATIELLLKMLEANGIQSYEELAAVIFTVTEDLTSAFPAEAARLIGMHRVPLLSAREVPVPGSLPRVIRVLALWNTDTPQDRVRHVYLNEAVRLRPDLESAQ


What was measured:
[1] = biological target: T1, DARP14 subunit B (unfused cage subunit B); test: SEC
[2] = biological target: T1, DARP14 subunit B (unfused cage subunit B); test: cryo-EM structure
[3] = biological target: T1, DARP14 subunit B (unfused cage subunit B); test: negative-stain electron microscopy
[4] = biological target: T2, DARP10 subunit B (unfused cage subunit); test: negative-stain electron microscopy

Binder	binding [1]	binding [2]	binding [3]	binding [4]
DARP14 subunit A (cage subunit A fused to the DARPin by a continuous alpha helix) (other) MRITTKVGDKGSTRLFGGEEVWKDSPIIEANGTLDELTSFIGEAKHYVDEEMKGILEEIQNDIYKIMGEIGSKGKIEGISEERIAWLLKLILRYMEMVNLKSFVLPGGTLESAKLDVCRTIARRALRKVLTVTREFGIGAEAAAYLLALSDLLFLLARVIEIELGKKLLEAARAGQDDEVRILMANGADVNAHDDQGSTPLHLAAWIGHPEIVEVLLKHGADVNARDTDGWTPLHLAADNGHLEIVEVLLKYGADVNAQDAYGLTPLHLAADRGHLEIVEVLLKHGADVNAQDKFGKTAFDISIDNGNEDLAEILQKLN	binds	binds	binds	–
DARP10 subunit A (cage subunit fused to the DARPin) (protein) MEEVVLITVPSALVAVKIAHALVEERLAACVNIVPGLTSIYREEGSVVSDHELLLLVKTTTDAFPKLKERVKELHPYEVPEIVALPIAEGNREYLDWLRENMERARQELGKKLLEAARAGQDDEVRILMANGADVNAHDDQGSTPLHLAAWIGHPEIVEVLLKHGADVNARDTDGWTPLHLAADNGHLEIVEVLLKYGADVNAQDAYGLTPLHLAADRGHLEIVEVLLKHGADVNAQDKFGKTAFDISIDNGNEDLAEILQKLN	–	–	–	binds
DARP11 subunit A (cage subunit A fused to the DARPin) (protein) MRITTKVGDKGSTRLFGGEEVWKDSPIIEANGTLDELTSFIGEAKHYVDEEMKGILEEIQNDIYKIMGEIGSKGKIEGISEERIAWLLKLILRYMEMVNLKSFVLPGGTLESAKLDVCRTIARRALRKVLTVTREFGIGAEAAAYLLALSDLLFLLARVIEIEKNDLGKKLLEAARAGQDDEVRILMANGADVNAHDDQGSTPLHLAAWIGHPEIVEVLLKHGADVNARDTDGWTPLHLAADNGHLEIVEVLLKYGADVNAQDAYGLTPLHLAADRGHLEIVEVLLKHGADVNAQDKFGKTAFDISIDNGNEDLAEILQKLN	–	–	binds	–
DARP12 subunit A (cage subunit A fused to the DARPin) (protein) MRITTKVGDKGSTRLFGGEEVWKDSPIIEANGTLDELTSFIGEAKHYVDEEMKGILEEIQNDIYKIMGEIGSKGKIEGISEERIAWLLKLILRYMEMVNLKSFVLPGGTLESAKLDVCRTIARRALRKVLTVTREFGIGAEAAAYLLALSDLLFLLARVIEIEKNQDLGKKLLEAARAGQDDEVRILMANGADVNAHDDQGSTPLHLAAWIGHPEIVEVLLKHGADVNARDTDGWTPLHLAADNGHLEIVEVLLKYGADVNAQDAYGLTPLHLAADRGHLEIVEVLLKHGADVNAQDKFGKTAFDISIDNGNEDLAEILQKLN	–	–	binds	–
DARP16 subunit A (cage subunit A fused to the DARPin) (protein) MRITTKVGDKGSTRLFGGEEVWKDSPIIEANGTLDELTSFIGEAKHYVDEEMKGILEEIQNDIYKIMGEIGSKGKIEGISEERIAWLLKLILRYMEMVNLKSFVLPGGTLESAKLDVCRTIARRALRKVLTVTREFGIGAEAAAYLLALSDLLFLLARVIEIEDLGKKLLEAARAGQDDEVRILMANGADVNAHDDQGSTPLHLAAWIGHPEIVEVLLKHGADVNARDTDGWTPLHLAADNGHLEIVEVLLKYGADVNAQDAYGLTPLHLAADRGHLEIVEVLLKHGADVNAQDKFGKTAFDISIDNGNEDLAEILQKLN	–	–	binds	–
